Results are percentages, as filed. The record does not define 0% and 100%; most values in the screen are far below 50% and negative numbers occur (in some assays of this library far below -100). This is an unselected part of the compounds tested. A dash means the value is not listed here; it may have been measured.

Protein sequences, listed by entry. Tags and fused reporters are not part of them.
UniProt E9BF75, entry or part of it: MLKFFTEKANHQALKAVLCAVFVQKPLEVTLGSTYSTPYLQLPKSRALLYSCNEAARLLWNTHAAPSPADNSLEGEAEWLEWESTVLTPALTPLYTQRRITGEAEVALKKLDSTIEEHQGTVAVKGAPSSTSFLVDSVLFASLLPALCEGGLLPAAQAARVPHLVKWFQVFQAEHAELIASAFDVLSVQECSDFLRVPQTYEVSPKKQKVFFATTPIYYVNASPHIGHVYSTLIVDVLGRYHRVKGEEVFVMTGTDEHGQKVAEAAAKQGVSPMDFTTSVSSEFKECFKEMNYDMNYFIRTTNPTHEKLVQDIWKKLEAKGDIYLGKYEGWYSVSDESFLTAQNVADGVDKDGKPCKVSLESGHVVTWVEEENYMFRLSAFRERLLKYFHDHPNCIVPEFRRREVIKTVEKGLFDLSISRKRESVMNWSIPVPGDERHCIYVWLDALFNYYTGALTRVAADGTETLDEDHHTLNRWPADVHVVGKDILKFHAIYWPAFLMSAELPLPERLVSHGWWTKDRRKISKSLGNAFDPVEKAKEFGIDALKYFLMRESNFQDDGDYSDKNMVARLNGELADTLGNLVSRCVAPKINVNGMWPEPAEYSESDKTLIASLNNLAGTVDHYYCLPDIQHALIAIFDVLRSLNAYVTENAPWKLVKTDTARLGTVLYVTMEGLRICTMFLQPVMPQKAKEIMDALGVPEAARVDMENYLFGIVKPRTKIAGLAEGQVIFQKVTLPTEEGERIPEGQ

Mtb heat-shock: 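Assay on Mycobacterium tuberculosis, filed only as a heat shock assay from Cornell; the read-out is not stated. The concentration is filed as 10 mM, unlikely as a test dose, so the dose is not known. Higher reads as stronger inhibition (inferred: compounds with an IC50 in retests scored well above the rest). About 69,000 compounds were tested under these conditions; 1.4% (about 930) showed 50% or more at least once.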
Mtb growth Cornell: 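Whole-cell assay for inhibitors of Mycobacterium tuberculosis growth, labelled Cornell in the record; the read-out is not stated. The concentration is filed as 10 mM, unlikely as a test dose, so the dose is not known. Higher means stronger inhibition (inferred from two other growth screens of the library). About 53,000 compounds were tested under these conditions; 1.7% (about 900) showed 50% or more at least once.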
LdMetRS: 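Primary screen of methionyl-tRNA synthetase; the read-out is not stated. Target: Methionyl-tRNA synthetase (putative), Leishmania donovani (UniProt E9BF75). The test concentration is not given. The values are filed as inhibition. About 68,000 compounds were tested under these conditions; 0.035% (about 24) showed 50% or more at least once.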

SMILES | Mtb heat-shock | Mtb growth Cornell | LdMetRS
COc1ccccc1NC(=O)NC1(c2noc(CN(C)C)n2)CCCC1 | -11.09% | - | 8.122%
NC(=O)c1c(NC(=O)CCCC(=O)O)sc2c1CCc1ccccc1-2 | 1.421% | -8.96% | 13.28%
CCN1CC2(CC1=O)CN(Cc1cnn(C)c1)CCN(C(=O)C(C)C)C2 (stereo not shown) | - | - | 17.14%
CC(=O)NCc1ccc(-n2ccnc2C)nc1 | 0.3044% | - | 14.17%
O=C(CN1CCc2[nH]c3ccccc3c2C1)NCc1ccco1 | -36.55% | 26.13% | 15.32%
CC(C)OCc1ncn2c1CN(Cc1cnn(C)c1)CCC2 | - | - | 13.36%
CC(=O)Nc1ccc(S(=O)(=O)NC(=O)CCC2CCCO2)cc1 (stereo not shown) | -8.392% | -16.65% | 12.42%
CS(=O)(=O)CCC(=O)NC1CC(c2cccc(Cl)c2)C1 (stereo not shown) | 0.8769% | -26.17% | 1.882%
CS(=O)(=O)N1CCN2C(=O)N(C3CCCCC3)C[C@H]2C1 | - | - | 0%
COc1ccc(CN(C)Cc2nc3c(cnn3C)c(=O)[nH]2)cc1OC | -6% | - | 9.028%
O=C(O)C(F)(F)F.[H][C@@]12CCN(CCc3ccccc3)C[C@]1([H])O[C@@H](C(=O)NCCOC)C2 | 1.914% | 9.58% | -
N#Cc1ccc(N2CCN(c3ncccn3)CC2)c(C(F)(F)F)c1 | -11.17% | -9.512% | 12.57%
O=C(O)C(F)(F)F.O=C(O)C(F)(F)F.[H][C@@]12CN(C(=O)c3ccccn3)C[C@]1([H])OCCN2C(C)C | -26.06% | 20.21% | -
O=C(CCCc1cn[nH]c1)N1CCOCC(O)C1 (stereo not shown) | -10.74% | -0.1006% | 11.33%
O=C(O)c1ccc(S(=O)(=O)Nc2ccccc2CC(F)(F)F)c(F)c1 | 3.925% | 36.57% | 6.923%
CC(NC(=O)c1cccc[n+]1[O-])c1ccc2c(c1)CCC(=O)N2 (stereo not shown) | 27.53% | 7.884% | 15.25%
CC(=O)N1CCN(C(C)c2ccc(Br)cc2)CC1 (stereo not shown) | -2.151% | 29.59% | 8.393%
COCCNC(=O)[C@H]1C[C@@H]2CCN(c3ccncn3)C[C@H]2O1 | - | - | 9.589%
CC(C)(C)N1CCN(C(=O)Nc2cc(C(F)(F)F)c[nH]c2=O)CC1 | -3.689% | - | 3.409%
CN(C)C(=O)CN1C(=O)C[C@@H]2[C@@H]1CCN2Cc1cccc(C#N)c1 | - | - | 11.94%
O=C(c1cscn1)N1C[C@H]2CN(Cc3nccs3)C[C@H]2C1 | - | - | 8.242%
Cc1cc(C(=O)N[C@H]2CN(CCO)C[C@@H]2C2CC2)sc1C | 6.649% | - | 8%
COc1cc(C)ccc1OCc1nc(C(=O)N2CCCNC(=O)C2)co1 | 1.338% | 24.41% | 12.81%
[H][C@]12CCN(C(=O)c3ccncc3)CC[C@@]1([H])S(=O)(=O)N(CC(=O)N(C)C)C2 | 14.38% | -9.239% | -
Cc1cc(C2CCCN2C(=O)NCc2cccnc2OC(C)C)on1 (stereo not shown) | -23.14% | 11.86% | 11.73%
Cc1nc2c(cc1C(=O)O)CCN(Cc1ccsc1)CC2 | - | - | 10.68%
CC(C)c1nc(N2CCN3CCCC3C2)c2cnn(C)c2n1 (stereo not shown) | 23.27% | 62.47% | 20.5%
CC(C)CCOc1ccc(C(C)NC(=O)CSCC(N)=O)cc1 (stereo not shown) | -12.71% | - | 15.47%
O=C(NS(=O)(=O)c1ccccc1)c1ccccc1F | 2.401% | 9.189% | 3.686%
O=C(O)C(F)(F)F.[H][C@@]12COC[C@]1(COCC)CN(Cc1ccc3c(c1)OCO3)C2 | 12.44% | 12.13% | -
CC1CCN(C(=O)c2cc(NC(=O)c3ccccc3)n(C)n2)CC1 | 21.76% | 1.048% | 15.32%
CCNC(=O)CN(Cc1ccoc1)C1CCCCC1 | -1.965% | 24.46% | 12.4%
Cc1ccsc1C(=O)N1CCC2(CC(C(=O)N(C)C(C)C)=NO2)C1 (stereo not shown) | -0.1492% | 10.66% | 14.11%
Cc1nc(C(C)C)ncc1C(=O)N1CCCC(N2CCCC2)C1 (stereo not shown) | 1.816% | -10.57% | 5.075%
CN1CCN(Cc2cn3c(n2)CN(Cc2ccncc2)CC3)CC1 | -3.106% | -19.75% | 2.346%
CCCSc1ncc(-c2nccn2CCC(N)=O)cn1 | -38.32% | 2.022% | 17%
Cn1cc(N2CC3(CCN(CC4CC4)CC3)OCC2=O)cn1 | - | - | 21.04%
Cc1cc(=O)[nH]c(NC2CCN(S(=O)(=O)c3ccccc3)CC2)n1 | -9.436% | 26.85% | 15.41%
O=C(c1ccncc1)N1CCN2C[C@H](Oc3cccc(F)c3)C[C@H]2C1 | - | - | 15.31%
CN(C)C(=O)CCS(=O)(=O)Cc1ccn(-c2cccc(F)c2)n1 | -16.72% | -29.55% | 16.03%
[H][C@]12C[C@H](NC(=O)c3ccn(C)n3)[C@@]1([H])CN(S(=O)(=O)c1ccc(C)cc1)C2 | -15.18% | 5.189% | -
CCN(Cc1nc(-c2ccco2)no1)Cc1cccc2c1OCO2 | -28.48% | 21.99% | 5.412%
Cc1nn(C)cc1-c1cc(C(F)F)nc2sc(C(N)=O)c(N)c12 | 9.009% | 39.36% | 17.85%
Cc1ccc(NC2CCN(C(=O)CCCc3cccs3)CC2)nn1 | 5.075% | -8.658% | 15.36%
O=C(O)C(F)(F)F.O=C(O)C(F)(F)F.O=C(O)C(F)(F)F.[H][C@@]12CN(Cc3nccs3)CCC[C@]1(C(=O)OCC)CN(CCN(C)C)C2 | 1.613% | 9.786% | -
c1coc(CN2CCO[C@H]3[C@H](OCC4CCCC4)CC[C@@H]32)c1 | - | - | 5.495%
CC(C)c1nc(C2CCCN2Cc2ccncc2Cl)no1 (stereo not shown) | 1.756% | -4.616% | 9.402%
c1coc(-c2nnc([C@H]3CCN(Cc4ccc5c(c4)OCO5)C3)o2)c1 | 6.156% | 26.36% | 7.119%
Cn1cc(NC(=O)Cc2cccs2)c(=O)n(C)c1=O | -5.65% | 10.21% | 9.253%
CC(=O)N1CCN(C)CC(COCc2ccccc2)C1 (stereo not shown) | -9.368% | -3.372% | 16.1%

For reference, 4 entries once more:

SMILES,Mtb heat-shock,Mtb growth Cornell,LdMetRS
CC(C)OCc1ncn2c1CN(Cc1cnn(C)c1)CCC2,-,-,13.36%
CC(C)(C)N1CCN(C(=O)Nc2cc(C(F)(F)F)c[nH]c2=O)CC1,-3.689%,-,3.409%
CN(C)C(=O)CCS(=O)(=O)Cc1ccn(-c2cccc(F)c2)n1,-16.72%,-29.55%,16.03%
Cc1ccc(NC2CCN(C(=O)CCCc3cccs3)CC2)nn1,5.075%,-8.658%,15.36%

Source: ChEMBL document CHEMBL3988442, “University of Dundee, Small-Polar-MMV Screening Library” (2021).